# Experimental data from PMC11078946.
# By UniProt entry, the sequences of proteins in these tests, tags left out.
# UniProt Q86VP6: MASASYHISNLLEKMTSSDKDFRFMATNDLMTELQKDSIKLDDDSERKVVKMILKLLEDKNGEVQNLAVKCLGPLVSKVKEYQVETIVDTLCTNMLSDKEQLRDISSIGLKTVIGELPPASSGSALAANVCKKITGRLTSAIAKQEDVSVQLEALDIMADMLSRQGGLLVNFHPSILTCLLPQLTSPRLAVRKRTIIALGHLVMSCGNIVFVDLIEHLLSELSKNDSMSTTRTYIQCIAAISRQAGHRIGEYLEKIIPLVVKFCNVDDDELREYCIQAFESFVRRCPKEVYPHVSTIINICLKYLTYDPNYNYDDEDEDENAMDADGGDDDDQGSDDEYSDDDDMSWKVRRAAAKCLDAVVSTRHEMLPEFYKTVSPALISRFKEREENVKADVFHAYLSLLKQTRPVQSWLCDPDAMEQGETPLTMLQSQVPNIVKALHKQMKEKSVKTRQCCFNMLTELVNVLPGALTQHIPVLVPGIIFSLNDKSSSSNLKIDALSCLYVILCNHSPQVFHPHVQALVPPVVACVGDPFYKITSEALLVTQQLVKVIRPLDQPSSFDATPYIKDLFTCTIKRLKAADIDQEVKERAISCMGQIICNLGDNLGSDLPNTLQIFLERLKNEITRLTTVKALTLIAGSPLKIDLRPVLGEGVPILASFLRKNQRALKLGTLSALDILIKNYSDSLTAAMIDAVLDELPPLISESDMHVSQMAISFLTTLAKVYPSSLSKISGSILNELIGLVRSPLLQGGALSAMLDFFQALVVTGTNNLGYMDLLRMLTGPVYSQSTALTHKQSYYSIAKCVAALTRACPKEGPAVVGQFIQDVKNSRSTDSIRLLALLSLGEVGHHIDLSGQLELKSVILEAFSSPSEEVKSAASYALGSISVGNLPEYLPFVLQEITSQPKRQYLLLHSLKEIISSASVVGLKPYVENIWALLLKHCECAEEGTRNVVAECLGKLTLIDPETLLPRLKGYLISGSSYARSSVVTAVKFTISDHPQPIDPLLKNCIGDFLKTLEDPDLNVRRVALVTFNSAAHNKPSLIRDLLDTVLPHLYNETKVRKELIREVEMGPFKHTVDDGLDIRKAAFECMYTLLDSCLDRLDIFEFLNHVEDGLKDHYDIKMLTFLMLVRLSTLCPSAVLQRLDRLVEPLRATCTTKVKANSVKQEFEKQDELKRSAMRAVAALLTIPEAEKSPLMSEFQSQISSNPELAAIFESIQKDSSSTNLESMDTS
# UniProt Q13619: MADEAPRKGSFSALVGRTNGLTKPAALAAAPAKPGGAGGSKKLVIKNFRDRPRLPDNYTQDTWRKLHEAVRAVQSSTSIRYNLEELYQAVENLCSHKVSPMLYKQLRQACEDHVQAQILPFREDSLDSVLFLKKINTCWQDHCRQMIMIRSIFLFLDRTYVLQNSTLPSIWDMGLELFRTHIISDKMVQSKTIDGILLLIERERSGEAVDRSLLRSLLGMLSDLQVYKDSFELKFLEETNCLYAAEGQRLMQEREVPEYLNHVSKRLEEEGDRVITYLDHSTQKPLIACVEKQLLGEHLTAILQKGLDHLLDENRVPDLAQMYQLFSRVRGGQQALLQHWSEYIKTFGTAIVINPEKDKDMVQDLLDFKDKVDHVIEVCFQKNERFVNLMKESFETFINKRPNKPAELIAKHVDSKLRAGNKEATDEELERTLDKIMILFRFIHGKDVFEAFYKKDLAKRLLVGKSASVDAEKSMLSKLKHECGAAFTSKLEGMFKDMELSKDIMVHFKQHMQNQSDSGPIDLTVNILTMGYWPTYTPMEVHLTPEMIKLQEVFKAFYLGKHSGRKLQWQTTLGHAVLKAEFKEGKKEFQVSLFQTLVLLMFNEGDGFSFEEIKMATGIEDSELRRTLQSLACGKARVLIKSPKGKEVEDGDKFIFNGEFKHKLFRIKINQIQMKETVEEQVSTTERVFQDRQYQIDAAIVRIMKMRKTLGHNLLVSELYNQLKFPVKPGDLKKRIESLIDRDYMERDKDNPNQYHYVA
# UniProt Q13620: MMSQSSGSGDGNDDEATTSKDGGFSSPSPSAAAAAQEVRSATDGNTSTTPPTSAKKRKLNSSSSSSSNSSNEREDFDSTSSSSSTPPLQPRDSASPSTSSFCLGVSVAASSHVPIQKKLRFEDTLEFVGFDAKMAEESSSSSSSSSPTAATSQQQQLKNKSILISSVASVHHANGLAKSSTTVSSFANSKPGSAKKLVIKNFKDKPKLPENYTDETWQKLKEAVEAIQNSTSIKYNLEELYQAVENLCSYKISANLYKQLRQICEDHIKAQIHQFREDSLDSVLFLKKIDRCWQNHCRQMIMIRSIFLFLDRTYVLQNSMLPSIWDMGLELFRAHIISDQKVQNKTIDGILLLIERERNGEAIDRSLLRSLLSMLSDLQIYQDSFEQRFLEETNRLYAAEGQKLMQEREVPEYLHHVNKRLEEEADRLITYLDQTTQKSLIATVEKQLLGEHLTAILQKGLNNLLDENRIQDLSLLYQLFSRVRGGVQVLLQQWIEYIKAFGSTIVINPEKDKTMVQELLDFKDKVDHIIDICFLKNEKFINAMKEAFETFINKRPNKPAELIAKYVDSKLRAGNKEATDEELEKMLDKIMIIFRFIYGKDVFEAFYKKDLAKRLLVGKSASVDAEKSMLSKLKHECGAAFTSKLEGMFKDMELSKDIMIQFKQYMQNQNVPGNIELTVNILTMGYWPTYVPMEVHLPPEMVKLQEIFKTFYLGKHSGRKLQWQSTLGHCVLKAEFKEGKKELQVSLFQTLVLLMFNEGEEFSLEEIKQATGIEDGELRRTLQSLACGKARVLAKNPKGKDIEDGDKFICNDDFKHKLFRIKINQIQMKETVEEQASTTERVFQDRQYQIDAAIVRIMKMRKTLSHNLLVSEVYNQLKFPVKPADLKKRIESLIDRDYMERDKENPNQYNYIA
# UniProt Q93034: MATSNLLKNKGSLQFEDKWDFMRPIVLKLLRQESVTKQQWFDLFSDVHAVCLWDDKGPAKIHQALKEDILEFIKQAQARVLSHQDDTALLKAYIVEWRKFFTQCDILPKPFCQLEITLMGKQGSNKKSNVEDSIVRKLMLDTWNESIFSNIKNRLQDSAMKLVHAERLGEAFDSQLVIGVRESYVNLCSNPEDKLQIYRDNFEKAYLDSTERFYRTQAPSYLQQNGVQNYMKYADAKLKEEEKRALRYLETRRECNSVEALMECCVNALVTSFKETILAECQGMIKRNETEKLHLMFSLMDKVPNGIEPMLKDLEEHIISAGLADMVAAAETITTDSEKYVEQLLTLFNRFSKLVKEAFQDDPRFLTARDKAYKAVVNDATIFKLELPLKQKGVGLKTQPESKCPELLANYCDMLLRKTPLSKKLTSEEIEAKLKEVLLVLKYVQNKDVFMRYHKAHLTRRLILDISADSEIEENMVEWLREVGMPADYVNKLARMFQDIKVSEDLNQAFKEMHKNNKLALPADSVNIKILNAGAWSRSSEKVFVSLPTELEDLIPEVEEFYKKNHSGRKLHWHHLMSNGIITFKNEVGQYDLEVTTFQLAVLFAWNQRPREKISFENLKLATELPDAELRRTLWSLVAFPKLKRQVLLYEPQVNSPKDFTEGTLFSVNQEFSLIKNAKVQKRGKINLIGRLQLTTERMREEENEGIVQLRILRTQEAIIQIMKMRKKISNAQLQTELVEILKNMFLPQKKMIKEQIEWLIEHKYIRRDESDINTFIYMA
# What was measured:
# [1] = target: GST-CAND1 (unmodified) (human) (UniProt Q86VP6); experiment: affinity purification with mass spectrometry; only the target purified
# [2] = target: GST-tagged phosphorylated CAND1 (human) (UniProt Q86VP6); experiment: as above
Substance,binding [1],binding [2]
Cul4A (from UniProt Q13619 1-759),binds,binds
Cul4B (from UniProt Q13620 1-913),binds,binds
Cul5 (from UniProt Q93034 1-780),binds,binds

# These are yes or no findings as the source states them, for the method shown. In cells and extracts the contact can be indirect. These calls come from enrichment with a bait or labelling near it, and not all partners need be listed.
